As usually defined, the AC50 is the concentration giving half of the maximal activity seen.

The list shows a part of the results. Shown are side measurements of this screen, not its main read-out; they come without a call. The list favours compounds with an active or inconclusive main result. Words in brackets tell the shape of the fitted curve; partial curves, single points and poor fits give uncertain potencies.

Data on 15 compounds can be found in PubChem BioAssay AID1487 (National Center for Advancing Translational Sciences (NCATS), 2009).

A short description of this test: qHTS Assay for Modulators of Lamin A Splicing. The settings on record: HeLa LMNA splicing GFP/RFP minigene ratio, 48 h. In a few lines:
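Read-out is the ratio of GFP to DsRed2 object intensity, acquired by 488 nm laser-scanning cytometry on HeLa lamin A-EGFP minigene reporter cells. Compound incubation 48 hrs at 37 °C in Opti-MEM with 2% FBS; DMSO 0.5% final.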
For orientation: Quantitative high-throughput screening tests each substance at several concentrations.

Where [1] appears, read: measured here: RFP viability control channel.
The mark [2] stands for this setting: measured here: GFP splicing reporter channel.

Regarding `CCN(CC)S(=O)(=O)c1ccc2c(c1)nc(CN(C)C(=O)c1cccc(Cl)c1)n2C`, the half-maximal activity concentration (AC50) under setting [1] was 2 µM [falling, partial curve].
Same read-out and setting: to `Cc1ccc(N2CC(O)=C(c3ccccc3)C2=N)cc1` belongs 0.00316 µM [rising, full curve, poor fit].
As to `Cc1cc(Sc2nc(N)ncc2[N+](=O)[O-])ncn1`, the AC50 reads like this: under setting [2], 5.01 µM [falling, full curve, poor fit]; under setting [1], 7.08 µM [falling, partial curve, poor fit].
As to `CC(C)N1CCN(Cc2ccc3nsnc3c2)CC1CCO` (configuration not stated), the AC50 was 0.251 µM [falling, full curve, poor fit] under setting [2] and 0.891 µM [falling, full curve] under setting [1].
`CCCCCCNS(=O)(=O)c1ccc(OC)c(OC)c1`: the AC50 is 25.1 µM [rising, single point] under setting [2] and 22.4 µM [rising, single point] under setting [1].
In the case of `COc1cc(/C=N/N=C2/C(=O)Nc3ccccc32)cc(OC)c1O`, the AC50 under setting [1] is 6.31 µM [rising, full curve].
As to `O=C(Nc1nnc(-c2ccccn2)o1)c1ccc(Br)cc1`, under setting [1], the AC50 was 12.6 µM [rising, partial curve, poor fit].
The same measure, in the same setting: with `COc1ccc(-n2c(SC(C)C(=O)Nc3ncc(Cl)cc3Cl)nc3ccccc32)cc1` (configuration not stated) the figure was 0.794 µM [rising, partial curve].
As to `O=C1CN2NC(=S)N(c3ccc(Cl)cc3)C2=CN1c1ccc(Cl)cc1`, the AC50 reads like this: under setting [2], 2.51 µM [falling, partial curve]; under setting [1], 1.78 µM [falling, full curve].
Consider `CC(C)c1ccc(OC(=O)c2cc(-c3ccc4c(c3)OCCO4)on2)cc1`, for which the AC50 under setting [1] was 10 µM [falling, partial curve, poor fit].
In the case of `C[C@]12CCC3c4ccc(OC(=O)c5ccccc5)cc4CCC3C1CCC2=O` (some centres not stated), under setting [2], the AC50 is 11.2 µM [rising, single point].
On to `O=C(N/N=C/c1cccc([N+](=O)[O-])c1)C1CC(=O)N(c2ccc(Br)cc2)C1` (configuration not stated), for which the AC50 is 17.8 µM [rising, partial curve, poor fit] under setting [2] and 12.6 µM [rising, partial curve] under setting [1].
For `Oc1ccc(Cl)c2cccnc12`, the AC50 is, setting by setting: under setting [2], 1 µM [falling, full curve, poor fit]; under setting [1], 1.26 µM [falling, full curve].
For `NC(=S)N/N=C1\CC(n2nnnc2-c2ccccc2Cl)C2COC1O2` (configuration not stated), the AC50 under setting [1] was 35.5 µM [rising, single point].
As to `Cn1cc(Br)c(C(=O)Nc2nccs2)n1`, the AC50 was 5.01 µM [rising, single point] under setting [2] and 1.58 µM [rising, partial curve] under setting [1].
